{"source": "PubChem BioAssay AID652272 (Drosophila RNAi Screening Center, 2013)", "purpose": "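Finding fly genes that regulate Hedgehog signal transduction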 (primary screen)", "system": "Drosophila clone 8 (Cl8) cells", "reagent": "long dsRNA against Drosophila genes", "detection": "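Plate reader light from a firefly reporter under a ptc promoter fragment that responds to Hedgehog, with Renilla light as transfection reference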", "reading the numbers": "firefly Hh reporter signal: higher = more ptc reporter light; Renilla reference signal: higher = more Renilla control light", "rule for the call": "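Called a hit if the two-replicate mean z-score lies below -2 or above +3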", "meaning of the calls": "active = hit: reporter lowered or raised; inactive = not a hit", "note": "The deposit covers about 21,000 reagents; below is an unselected part of those that have a named target and a result. Over the whole deposit, 503 (2.4%) were called active. 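Raw plate light values, not normalised; calls rest on replicate z-scores that were not deposited; hits include reporter decreases as well as increases.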 Not stated in the record: the amount of reagent, the time to read-out."}
{"target gene": "CG12268", "PubChem SID": "SID104194283", "firefly Hh reporter signal, replicate 1": 5.24e5, "firefly Hh reporter signal, replicate 2": 76979, "Renilla reference signal, replicate 1": 25432, "Renilla reference signal, replicate 2": 2374, "Call": "inactive"}
{"target gene": "Or63a", "PubChem SID": "SID104188473", "firefly Hh reporter signal, replicate 1": 95576, "firefly Hh reporter signal, replicate 2": 45943, "Renilla reference signal, replicate 1": 3065, "Renilla reference signal, replicate 2": 3731, "Call": "inactive"}
{"target gene": "ninaA", "PubChem SID": "SID104180622", "firefly Hh reporter signal, replicate 1": 1.23e5, "firefly Hh reporter signal, replicate 2": 81849, "Renilla reference signal, replicate 1": 5466, "Renilla reference signal, replicate 2": 3888, "Call": "inactive"}
{"target gene": "dpr5", "PubChem SID": "SID104195558", "firefly Hh reporter signal, replicate 1": 74346, "firefly Hh reporter signal, replicate 2": 1.35e5, "Renilla reference signal, replicate 1": 2581, "Renilla reference signal, replicate 2": 2880, "Call": "inactive"}
{"target gene": "Vps16A", "PubChem SID": "SID104196214", "firefly Hh reporter signal, replicate 1": 66765, "firefly Hh reporter signal, replicate 2": 1.14e5, "Renilla reference signal, replicate 1": 2139, "Renilla reference signal, replicate 2": 2976, "Call": "inactive"}
{"target gene": "CG33259", "PubChem SID": "SID104190646", "firefly Hh reporter signal, replicate 1": 1.32e5, "Renilla reference signal, replicate 1": 4123, "Renilla reference signal, replicate 2": 3622, "Call": "inactive"}
{"target gene": "Elp3", "PubChem SID": "SID104180240", "firefly Hh reporter signal, replicate 1": 83332, "firefly Hh reporter signal, replicate 2": 45163, "Renilla reference signal, replicate 1": 2026, "Renilla reference signal, replicate 2": 5303, "Call": "inactive"}
{"target gene": "Rh7", "PubChem SID": "SID104190321", "firefly Hh reporter signal, replicate 1": 66384, "firefly Hh reporter signal, replicate 2": 53485, "Renilla reference signal, replicate 1": 3920, "Renilla reference signal, replicate 2": 2800, "Call": "inactive"}
{"target gene": "Tsp42Eg", "PubChem SID": "SID104185904", "firefly Hh reporter signal, replicate 1": 1.19e5, "firefly Hh reporter signal, replicate 2": 93880, "Renilla reference signal, replicate 1": 5130, "Renilla reference signal, replicate 2": 3817, "Call": "inactive"}
{"target gene": "mspo", "PubChem SID": "SID104187444", "firefly Hh reporter signal, replicate 1": 1.02e5, "firefly Hh reporter signal, replicate 2": 55419, "Renilla reference signal, replicate 1": 2346, "Renilla reference signal, replicate 2": 3931, "Call": "inactive"}

Already shown: 3 of the entries above.
{"target gene": "dpr5", "PubChem SID": "SID104195558", "firefly Hh reporter signal, replicate 1": 74346, "firefly Hh reporter signal, replicate 2": 1.35e5, "Renilla reference signal, replicate 1": 2581, "Renilla reference signal, replicate 2": 2880, "Call": "inactive"}
{"target gene": "Vps16A", "PubChem SID": "SID104196214", "firefly Hh reporter signal, replicate 1": 66765, "firefly Hh reporter signal, replicate 2": 1.14e5, "Renilla reference signal, replicate 1": 2139, "Renilla reference signal, replicate 2": 2976, "Call": "inactive"}
{"target gene": "CG33259", "PubChem SID": "SID104190646", "firefly Hh reporter signal, replicate 1": 1.32e5, "Renilla reference signal, replicate 1": 4123, "Renilla reference signal, replicate 2": 3622, "Call": "inactive"}

Continued.
{"target gene": "klhl10", "PubChem SID": "SID104185066", "firefly Hh reporter signal, replicate 1": 1.14e5, "firefly Hh reporter signal, replicate 2": 2.84e5, "Renilla reference signal, replicate 1": 3067, "Renilla reference signal, replicate 2": 10345, "Call": "inactive"}
{"target gene": "klhl10", "PubChem SID": "SID104198963", "firefly Hh reporter signal, replicate 1": 5.86e5, "firefly Hh reporter signal, replicate 2": 1.88e5, "Renilla reference signal, replicate 1": 33942, "Renilla reference signal, replicate 2": 3937, "Call": "inactive"}
{"target gene": "klhl10", "PubChem SID": "SID104200542", "firefly Hh reporter signal, replicate 1": 70381, "firefly Hh reporter signal, replicate 2": 1.66e5, "Renilla reference signal, replicate 1": 2626, "Renilla reference signal, replicate 2": 7684, "Call": "inactive"}
{"target gene": "klhl10", "PubChem SID": "SID104200717", "firefly Hh reporter signal, replicate 1": 1.33e5, "firefly Hh reporter signal, replicate 2": 2.71e5, "Renilla reference signal, replicate 1": 5165, "Renilla reference signal, replicate 2": 12170, "Call": "inactive"}
{"target gene": "Cpsf6", "PubChem SID": "SID104190573", "firefly Hh reporter signal, replicate 1": 41212, "firefly Hh reporter signal, replicate 2": 60653, "Renilla reference signal, replicate 1": 2614, "Renilla reference signal, replicate 2": 3222, "Call": "inactive"}
{"target gene": "CG14323", "PubChem SID": "SID104194594", "firefly Hh reporter signal, replicate 1": 1.29e5, "firefly Hh reporter signal, replicate 2": 94985, "Renilla reference signal, replicate 1": 2466, "Renilla reference signal, replicate 2": 247, "Call": "inactive"}
{"target gene": "CG5532", "PubChem SID": "SID104184301", "firefly Hh reporter signal, replicate 1": 6.07e5, "firefly Hh reporter signal, replicate 2": 1.42e5, "Renilla reference signal, replicate 1": 6293, "Renilla reference signal, replicate 2": 6293, "Call": "inactive"}
{"target gene": "alpha-Man-Ib", "PubChem SID": "SID104194210", "firefly Hh reporter signal, replicate 1": 88442, "firefly Hh reporter signal, replicate 2": 1.15e5, "Renilla reference signal, replicate 1": 1512, "Renilla reference signal, replicate 2": 3211, "Call": "inactive"}
{"target gene": "Cds", "PubChem SID": "SID104190730", "firefly Hh reporter signal, replicate 1": 1.85e5, "firefly Hh reporter signal, replicate 2": 96208, "Renilla reference signal, replicate 1": 6267, "Renilla reference signal, replicate 2": 3616, "Call": "inactive"}
{"target gene": "eIF3e", "PubChem SID": "SID104190991", "firefly Hh reporter signal, replicate 1": 1.09e5, "Renilla reference signal, replicate 1": 1392, "Renilla reference signal, replicate 2": 2456, "Call": "inactive"}
{"target gene": "HisCl1", "PubChem SID": "SID104194737", "firefly Hh reporter signal, replicate 1": 1.39e5, "firefly Hh reporter signal, replicate 2": 75110, "Renilla reference signal, replicate 1": 4989, "Renilla reference signal, replicate 2": 2928, "Call": "inactive"}
